Some of the results follow.
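Further: competitive chemoproteomic profiling in live THP-1 cells with an iodoacetamide desthiobiotin (IA-DTB) probe, comparing probe-labelled peptide intensities in compound-treated cells against DMSO-treated controls.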

Sequences of proteins named here, by UniProt entry; tags and fusion partners are left off. A change or cut given only in a name is not applied to a line headed by its entry.
UniProt Q86UX7, whole entry, looked up: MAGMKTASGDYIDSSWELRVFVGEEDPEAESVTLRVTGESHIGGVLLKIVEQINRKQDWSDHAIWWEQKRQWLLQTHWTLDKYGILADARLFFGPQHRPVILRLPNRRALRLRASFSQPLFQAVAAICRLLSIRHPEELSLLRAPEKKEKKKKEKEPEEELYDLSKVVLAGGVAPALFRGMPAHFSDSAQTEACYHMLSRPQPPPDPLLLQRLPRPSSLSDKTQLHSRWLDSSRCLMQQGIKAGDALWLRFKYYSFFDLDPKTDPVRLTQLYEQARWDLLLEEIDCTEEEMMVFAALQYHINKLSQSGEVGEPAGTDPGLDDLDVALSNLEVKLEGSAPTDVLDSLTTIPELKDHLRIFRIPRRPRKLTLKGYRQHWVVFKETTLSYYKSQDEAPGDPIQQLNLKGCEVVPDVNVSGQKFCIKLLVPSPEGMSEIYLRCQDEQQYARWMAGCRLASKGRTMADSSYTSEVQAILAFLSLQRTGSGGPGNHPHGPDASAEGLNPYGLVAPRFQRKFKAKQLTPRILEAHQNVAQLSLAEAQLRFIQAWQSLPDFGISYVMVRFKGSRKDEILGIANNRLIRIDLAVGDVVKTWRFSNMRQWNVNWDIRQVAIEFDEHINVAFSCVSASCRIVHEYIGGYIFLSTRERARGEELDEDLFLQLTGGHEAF
UniProt Q8N0U4: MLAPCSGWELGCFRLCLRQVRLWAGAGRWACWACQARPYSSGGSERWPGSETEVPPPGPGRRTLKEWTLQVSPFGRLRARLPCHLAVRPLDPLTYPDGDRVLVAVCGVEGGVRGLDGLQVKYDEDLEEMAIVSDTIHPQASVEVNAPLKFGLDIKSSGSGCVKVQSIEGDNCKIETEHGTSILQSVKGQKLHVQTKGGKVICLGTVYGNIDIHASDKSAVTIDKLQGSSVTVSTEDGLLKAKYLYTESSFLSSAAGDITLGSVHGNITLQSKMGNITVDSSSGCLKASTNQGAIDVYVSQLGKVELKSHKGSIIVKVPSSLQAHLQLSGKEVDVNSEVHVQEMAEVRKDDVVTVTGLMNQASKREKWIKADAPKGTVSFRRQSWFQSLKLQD
UniProt O15287: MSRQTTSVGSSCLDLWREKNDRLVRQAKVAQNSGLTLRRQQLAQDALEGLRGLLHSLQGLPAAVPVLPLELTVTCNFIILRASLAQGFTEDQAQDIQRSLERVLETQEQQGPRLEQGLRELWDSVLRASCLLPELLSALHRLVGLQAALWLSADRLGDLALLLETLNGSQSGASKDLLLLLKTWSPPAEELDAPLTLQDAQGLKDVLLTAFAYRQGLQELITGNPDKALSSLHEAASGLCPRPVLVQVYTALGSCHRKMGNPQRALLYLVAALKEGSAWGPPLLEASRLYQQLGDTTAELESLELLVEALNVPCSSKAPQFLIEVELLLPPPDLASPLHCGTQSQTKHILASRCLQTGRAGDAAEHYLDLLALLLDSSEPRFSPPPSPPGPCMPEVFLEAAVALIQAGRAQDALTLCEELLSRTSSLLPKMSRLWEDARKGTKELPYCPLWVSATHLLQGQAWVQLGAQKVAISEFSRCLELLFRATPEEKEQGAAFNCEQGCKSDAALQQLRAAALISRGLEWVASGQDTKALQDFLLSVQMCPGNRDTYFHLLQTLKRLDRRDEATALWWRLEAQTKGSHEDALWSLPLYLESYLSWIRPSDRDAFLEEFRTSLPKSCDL
UniProt Q9UK61: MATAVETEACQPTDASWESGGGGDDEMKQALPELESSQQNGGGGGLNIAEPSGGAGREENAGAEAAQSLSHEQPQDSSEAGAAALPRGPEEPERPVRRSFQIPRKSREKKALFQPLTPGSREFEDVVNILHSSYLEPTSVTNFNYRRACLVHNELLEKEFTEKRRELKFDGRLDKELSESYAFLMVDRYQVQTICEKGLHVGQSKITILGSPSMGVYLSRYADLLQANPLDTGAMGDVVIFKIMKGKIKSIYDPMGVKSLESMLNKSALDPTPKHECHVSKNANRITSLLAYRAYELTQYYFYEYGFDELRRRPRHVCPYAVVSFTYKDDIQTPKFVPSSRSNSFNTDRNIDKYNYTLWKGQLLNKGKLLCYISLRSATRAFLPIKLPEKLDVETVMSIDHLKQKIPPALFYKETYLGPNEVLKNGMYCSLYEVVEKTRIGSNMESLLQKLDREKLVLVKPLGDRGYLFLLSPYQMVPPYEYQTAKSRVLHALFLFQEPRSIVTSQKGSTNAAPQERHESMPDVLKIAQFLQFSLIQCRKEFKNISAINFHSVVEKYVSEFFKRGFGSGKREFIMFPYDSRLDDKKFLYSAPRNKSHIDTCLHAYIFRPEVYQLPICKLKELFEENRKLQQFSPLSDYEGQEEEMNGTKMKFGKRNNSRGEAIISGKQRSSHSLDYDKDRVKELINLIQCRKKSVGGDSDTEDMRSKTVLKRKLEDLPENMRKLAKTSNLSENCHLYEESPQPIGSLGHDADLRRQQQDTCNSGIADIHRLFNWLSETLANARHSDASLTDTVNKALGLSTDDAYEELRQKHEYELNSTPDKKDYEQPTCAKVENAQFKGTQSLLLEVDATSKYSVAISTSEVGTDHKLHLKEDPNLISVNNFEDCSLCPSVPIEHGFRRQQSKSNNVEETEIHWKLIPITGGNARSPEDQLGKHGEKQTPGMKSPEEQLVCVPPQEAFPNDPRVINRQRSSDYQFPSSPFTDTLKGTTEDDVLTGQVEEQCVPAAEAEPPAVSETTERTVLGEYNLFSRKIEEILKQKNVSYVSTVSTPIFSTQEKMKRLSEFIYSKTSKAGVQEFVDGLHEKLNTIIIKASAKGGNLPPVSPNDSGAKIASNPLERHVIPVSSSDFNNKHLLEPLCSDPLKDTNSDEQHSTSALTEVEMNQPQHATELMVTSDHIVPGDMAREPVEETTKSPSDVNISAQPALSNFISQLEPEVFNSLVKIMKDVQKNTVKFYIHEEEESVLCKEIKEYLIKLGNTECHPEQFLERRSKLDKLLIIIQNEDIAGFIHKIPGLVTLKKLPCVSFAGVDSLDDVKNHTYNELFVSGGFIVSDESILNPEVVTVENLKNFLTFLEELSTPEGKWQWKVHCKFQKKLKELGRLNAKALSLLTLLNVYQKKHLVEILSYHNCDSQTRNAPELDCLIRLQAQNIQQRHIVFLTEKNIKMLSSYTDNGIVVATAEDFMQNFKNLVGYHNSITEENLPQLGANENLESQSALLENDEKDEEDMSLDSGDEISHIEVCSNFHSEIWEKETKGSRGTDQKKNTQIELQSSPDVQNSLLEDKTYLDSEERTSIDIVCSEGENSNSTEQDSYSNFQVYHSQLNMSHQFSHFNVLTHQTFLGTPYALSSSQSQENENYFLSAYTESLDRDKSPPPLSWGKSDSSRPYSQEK
UniProt Q9NW38: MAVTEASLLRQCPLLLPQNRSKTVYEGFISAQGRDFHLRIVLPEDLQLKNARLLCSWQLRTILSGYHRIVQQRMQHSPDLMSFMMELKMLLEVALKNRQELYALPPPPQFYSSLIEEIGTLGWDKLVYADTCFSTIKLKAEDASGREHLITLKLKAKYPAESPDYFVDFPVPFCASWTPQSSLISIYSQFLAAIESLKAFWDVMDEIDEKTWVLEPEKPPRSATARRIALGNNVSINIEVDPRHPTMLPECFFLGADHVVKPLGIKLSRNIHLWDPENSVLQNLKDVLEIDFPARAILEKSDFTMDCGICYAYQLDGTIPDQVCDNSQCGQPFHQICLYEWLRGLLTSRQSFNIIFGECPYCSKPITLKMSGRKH
UniProt Q9BZQ8: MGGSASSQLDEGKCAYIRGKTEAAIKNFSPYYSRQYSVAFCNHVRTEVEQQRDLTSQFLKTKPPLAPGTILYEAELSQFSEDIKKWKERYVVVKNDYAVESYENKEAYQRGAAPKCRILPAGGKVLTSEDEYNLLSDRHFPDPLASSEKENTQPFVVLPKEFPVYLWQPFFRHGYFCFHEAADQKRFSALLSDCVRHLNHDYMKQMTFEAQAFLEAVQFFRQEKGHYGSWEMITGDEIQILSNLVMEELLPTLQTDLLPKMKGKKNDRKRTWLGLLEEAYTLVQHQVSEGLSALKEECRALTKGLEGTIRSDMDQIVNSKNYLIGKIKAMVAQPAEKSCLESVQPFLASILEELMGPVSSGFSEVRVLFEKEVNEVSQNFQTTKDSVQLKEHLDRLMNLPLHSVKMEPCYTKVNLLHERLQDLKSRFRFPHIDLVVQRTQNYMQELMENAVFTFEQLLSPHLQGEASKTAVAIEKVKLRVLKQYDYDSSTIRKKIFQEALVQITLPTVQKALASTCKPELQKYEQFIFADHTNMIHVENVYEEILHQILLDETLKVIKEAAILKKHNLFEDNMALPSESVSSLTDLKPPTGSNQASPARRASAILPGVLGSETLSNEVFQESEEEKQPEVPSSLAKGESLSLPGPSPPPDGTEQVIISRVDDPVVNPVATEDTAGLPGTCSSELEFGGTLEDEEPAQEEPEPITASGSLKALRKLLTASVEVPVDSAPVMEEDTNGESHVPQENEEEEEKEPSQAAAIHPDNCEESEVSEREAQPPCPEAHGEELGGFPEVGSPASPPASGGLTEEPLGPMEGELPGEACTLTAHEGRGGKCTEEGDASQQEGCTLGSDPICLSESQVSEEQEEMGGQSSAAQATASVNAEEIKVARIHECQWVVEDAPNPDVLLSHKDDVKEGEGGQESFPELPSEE
UniProt P78312: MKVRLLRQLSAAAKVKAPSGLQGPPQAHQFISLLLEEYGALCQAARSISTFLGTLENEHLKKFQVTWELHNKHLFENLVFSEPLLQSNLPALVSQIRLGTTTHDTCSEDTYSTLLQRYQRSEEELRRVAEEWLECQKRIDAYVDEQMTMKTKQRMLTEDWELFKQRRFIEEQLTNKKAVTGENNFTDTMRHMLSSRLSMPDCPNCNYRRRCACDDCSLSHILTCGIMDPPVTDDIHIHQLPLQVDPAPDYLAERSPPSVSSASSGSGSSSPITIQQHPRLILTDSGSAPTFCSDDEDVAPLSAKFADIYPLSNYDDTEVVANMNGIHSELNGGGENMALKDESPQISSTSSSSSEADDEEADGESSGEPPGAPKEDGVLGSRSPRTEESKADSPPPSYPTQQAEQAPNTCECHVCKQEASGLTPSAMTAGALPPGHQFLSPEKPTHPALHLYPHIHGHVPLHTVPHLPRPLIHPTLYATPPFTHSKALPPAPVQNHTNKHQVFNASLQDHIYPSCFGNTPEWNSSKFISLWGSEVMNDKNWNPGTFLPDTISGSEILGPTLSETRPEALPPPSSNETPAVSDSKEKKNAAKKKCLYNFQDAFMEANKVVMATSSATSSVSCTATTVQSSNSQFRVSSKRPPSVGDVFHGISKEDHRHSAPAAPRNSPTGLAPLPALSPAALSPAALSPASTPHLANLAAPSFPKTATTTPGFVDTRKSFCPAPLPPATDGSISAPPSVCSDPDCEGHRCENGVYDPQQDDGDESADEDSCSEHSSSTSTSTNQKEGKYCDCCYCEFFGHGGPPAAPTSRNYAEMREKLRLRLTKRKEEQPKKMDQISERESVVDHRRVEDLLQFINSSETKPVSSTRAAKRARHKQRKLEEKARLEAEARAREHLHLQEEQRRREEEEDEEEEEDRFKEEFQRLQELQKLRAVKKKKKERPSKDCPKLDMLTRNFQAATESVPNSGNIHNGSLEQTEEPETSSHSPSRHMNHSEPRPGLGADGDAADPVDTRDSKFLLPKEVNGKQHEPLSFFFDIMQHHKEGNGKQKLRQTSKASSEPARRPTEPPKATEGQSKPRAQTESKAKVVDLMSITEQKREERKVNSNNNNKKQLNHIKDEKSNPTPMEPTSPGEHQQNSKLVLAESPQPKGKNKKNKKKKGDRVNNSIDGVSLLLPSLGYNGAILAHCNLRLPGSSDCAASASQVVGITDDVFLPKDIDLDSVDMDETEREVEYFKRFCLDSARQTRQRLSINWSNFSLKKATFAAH
UniProt Q9NX38: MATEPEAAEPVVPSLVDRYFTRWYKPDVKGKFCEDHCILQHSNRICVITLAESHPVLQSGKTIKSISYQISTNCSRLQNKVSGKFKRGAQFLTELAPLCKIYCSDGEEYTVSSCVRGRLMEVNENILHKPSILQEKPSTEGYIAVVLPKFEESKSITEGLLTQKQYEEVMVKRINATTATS
UniProt Q9H469: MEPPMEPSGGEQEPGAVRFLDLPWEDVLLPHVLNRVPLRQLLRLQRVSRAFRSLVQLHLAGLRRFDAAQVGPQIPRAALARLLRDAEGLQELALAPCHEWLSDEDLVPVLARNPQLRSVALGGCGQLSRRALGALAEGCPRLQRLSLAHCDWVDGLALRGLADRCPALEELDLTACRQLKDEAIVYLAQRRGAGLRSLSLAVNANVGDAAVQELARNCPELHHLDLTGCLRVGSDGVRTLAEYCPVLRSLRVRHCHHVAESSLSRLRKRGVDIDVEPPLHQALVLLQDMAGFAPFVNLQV

Compound in the assay: CC1Cc2ccccc2N1C(=O)C1CCCN(C1)C(=O)CCl (mixture of isomers) [TRIM25 ligand 11 (diastereomer mixture)]
Nature of the assay: probe-labelled cysteine peptide fold change vs DMSO (competition) (log2 fold change); higher = less target engagement (more negative = stronger competition). The following applies: 50 µM; THP-1; incubation time: 4 h.
Take “FASN_P49327_135_DPETLVGYSMVGCQR (UniProt P49327)”: the “probe-labelled cysteine peptide fold change” value is -0.0643. For “FARSB_Q9NSD9_548_CAEIFAR (UniProt Q9NSD9)”, the “probe-labelled cysteine peptide fold change” value is -0.0374.

Turning to “FERMT3_Q86UX7_439_CQDEQQYAR (UniProt Q86UX7)”, the “probe-labelled cysteine peptide fold change” value is 0.246. For the target “FBN2_P35556_682_CDCPPGLAVGMDGR (UniProt P35556)”, the “probe-labelled cysteine peptide fold change” value amounted to 0.308. For the target “FASN_P49327_1448_AINCATSGVVGLVNCLR (UniProt P49327)”, the “probe-labelled cysteine peptide fold change” value was -0.0165. As for “FBXL17_Q9UF56_342_CLSASLVCK (UniProt Q9UF56)”, the “probe-labelled cysteine peptide fold change” value came to 0.0876.

For “FBN2_P35556_1012_WDEDECIHPVPGK (UniProt P35556)”, the “probe-labelled cysteine peptide fold change” value was found to be 0.27. As to “FAM185A_Q8N0U4_284_MGNITVDSSSGCLK (UniProt Q8N0U4)”, the “probe-labelled cysteine peptide fold change” value worked out at 0.101.

For the target “FAR2_Q96K12_104_EDMQELLSCTNIIFHCAATVR (UniProt Q96K12)”, the “probe-labelled cysteine peptide fold change” value came to 0.343.

In the case of “FASN_P49327_779_RGLKPSCTIIPLMK (UniProt P49327)”, the “probe-labelled cysteine peptide fold change” value is -0.239. As to “FAM47A_Q5JRC9_650_ECSSELK (UniProt Q5JRC9)”, the “probe-labelled cysteine peptide fold change” value is 0.135. For the target “FANCG_O15287_503_EQGAAFNCEQGCK (UniProt O15287)”, the “probe-labelled cysteine peptide fold change” value was 0.106. Turning to “FAM208A_Q9UK61_318_HVCPYAVVSFTYK (UniProt Q9UK61)”, the “probe-labelled cysteine peptide fold change” value is -0.00352. As for “FAM160A2_Q8N612_927_NAVYCAVIFPEFLK (UniProt Q8N612)”, the “probe-labelled cysteine peptide fold change” value worked out at 0.429. Consider “FASTKD2_Q9NYY8_366_SLILLDECSK (UniProt Q9NYY8)”, for which the “probe-labelled cysteine peptide fold change” value amounted to 0.0015. For “FBXO4_Q9UKT5_283_VCEVVDGFIYVANAEAHK (UniProt Q9UKT5)”, the “probe-labelled cysteine peptide fold change” value came to 0.166. In the case of “FBXL6_Q8N531_407_ITPAGLQDLPCR (UniProt Q8N531)”, the “probe-labelled cysteine peptide fold change” value was -0.0194. “FANCL_Q9NW38_251_HPTMLPECFFLGADHVVKPLGIK (UniProt Q9NW38)”: the “probe-labelled cysteine peptide fold change” value is -0.0654. Under “FAM208A_Q9UK61_538_IAQFLQFSLIQCR (UniProt Q9UK61)” stands 0.171. For “FAM129A_Q9BZQ8_516_ALASTCKPELQK (UniProt Q9BZQ8)”, the “probe-labelled cysteine peptide fold change” value is -0.0291.

With “FCHSD1_Q86WN1_471_ALPCPAHVVFR (UniProt Q86WN1)”, the “probe-labelled cysteine peptide fold change” value was found to be 0.0485. On to “FBXL20_Q96IG2_378_SCHSLER (UniProt Q96IG2)”, for which the “probe-labelled cysteine peptide fold change” value is -0.178. For “FAM20B_O75063_331_SILAPLYQCCIIR (UniProt O75063)”, the “probe-labelled cysteine peptide fold change” value was 0.25.

On to “FASN_P49327_1186_LLSAACR (UniProt P49327)”, for which the “probe-labelled cysteine peptide fold change” value turned out to be 0.0194. In the case of “FASN_P49327_630_EAHLPPGAMAAVGLSWEECK (UniProt P49327)”, the “probe-labelled cysteine peptide fold change” value is 0.284. Take “FBP1_P09467_39_GTGELTQLLNSLCTAVK (UniProt P09467)”: the “probe-labelled cysteine peptide fold change” value came to 0.0125. The figure for “FBXL12_Q9NXK8_155_QQDPTVLPLLECIVLDRVPAFR (UniProt Q9NXK8)” is 0.296.

Take “FANCG_O15287_417_AQDALTLCEELLSR (UniProt O15287)”: the “probe-labelled cysteine peptide fold change” value was -0.0211.

Consider “FAM193A_P78312_106_LGTTTHDTCSEDTYSTLLQR (UniProt P78312)”, for which the “probe-labelled cysteine peptide fold change” value was -0.0956.

For “FBXL18_Q96ME1_557_HLTLAQLPSVLTGSGLVNIGLQCQQLR (UniProt Q96ME1)”, the “probe-labelled cysteine peptide fold change” value was -0.471. Take “FAM129A_Q9BZQ8_194_RFSALLSDCVR (UniProt Q9BZQ8)”: the “probe-labelled cysteine peptide fold change” value amounted to 0.0225. Take “FAM206A_Q9NX38_46_ICVITLAESHPVLQSGK (UniProt Q9NX38)”: the “probe-labelled cysteine peptide fold change” value turned out to be 0.494.

Take “FAM234A_Q9H0X4_285_TGAHYILFPCASSLCGCSVK (UniProt Q9H0X4)”: the “probe-labelled cysteine peptide fold change” value was -0.103. Consider “FANCI_Q9NVI1_1085_TAAPTVCLLVLSQAEK (UniProt Q9NVI1)”, for which the “probe-labelled cysteine peptide fold change” value is 0.0917. Consider “FASN_P49327_135_GTHTGVWVGVSGSETSEALSRDPETLVGYSMVGCQR (UniProt P49327)”, for which the “probe-labelled cysteine peptide fold change” value was -0.0891.

In the case of “FCGR2A_P12318_62_LEPPWINVLQEDSVTLTCQGAR (UniProt P12318)”, the “probe-labelled cysteine peptide fold change” value came out at 0.0582.

For “FBXO30_Q8TB52_396_NVDVLSFSHAPSFNFLSNSCWSK (UniProt Q8TB52)”, the “probe-labelled cysteine peptide fold change” value was -0.2. “FBXL15_Q9H469_255_HCHHVAESSLSR (UniProt Q9H469)”: the “probe-labelled cysteine peptide fold change” value is 0.173. Take “FBXO22_Q8NEZ5_378_CNEVKDDDLFHSYTTIMALIHLGSSK (UniProt Q8NEZ5)”: the “probe-labelled cysteine peptide fold change” value came to 0.0518.
